{"source": "paper PMC3366976", "about": "“Tuning the Drug Efflux Activity of an ABC Transporter in vivo by in vitro Selected DARPin Binders” (PLoS ONE, 2012)", "binders": {"B1": {"name": "biotinylated nucleotide binding domain of LmrD with N-terminal Avi-tag (bLmrD-NBD_(AviN)) (domain or fragment, UniProt A2RI38 424-664)", "chain": "GIQIENLDFEYLPGKPVLKKVNIDVKKGQMVALVGPTGSGKTTVMNLMNRFYDVNGGAIKFDGTDIREFDLDSLRSNVGIVLQESVLFDGTIADNIKFGKPNATQEEIETVAKTTHIHEFIESLPDKYETHVSDDESVFSVGQKQQISIARTILTNPELLILDEATSNVDTVTEEQIQWAMEAAIAGRTSFVIAHRLKTILNADKIVVLKDGEVIEEGNHHELVAQGGFYSELYHNQFVFE", "modifications": "biotin on the Avi-tag (enzymatic)"}}, "molecular_target": "biotinylated nucleotide binding domain of LmrD with N-terminal Avi-tag (bLmrD-NBD_(AviN)) (Lactococcus lactis) (UniProt A2RI38)", "assay": "SEC; purified NBD of LmrD from E. coli on SEC (Figure S1F); both purified", "note": "These are yes or no findings as the source states them, for the method shown. Tags and fused reporters may be left off the sequences shown."}
{"binder": "B1", "values": [{"measurement": "binding", "value": "no binding"}]}
